Experimental data: the supplement of paper PMC10849652
The other results are listed elsewhere or left out.

The chains behind the UniProt entries cited, without tags or fusion partners. Where a name states a change or a piece, a line headed by the entry shows the natural chain unless it says otherwise.
UniProt P78363: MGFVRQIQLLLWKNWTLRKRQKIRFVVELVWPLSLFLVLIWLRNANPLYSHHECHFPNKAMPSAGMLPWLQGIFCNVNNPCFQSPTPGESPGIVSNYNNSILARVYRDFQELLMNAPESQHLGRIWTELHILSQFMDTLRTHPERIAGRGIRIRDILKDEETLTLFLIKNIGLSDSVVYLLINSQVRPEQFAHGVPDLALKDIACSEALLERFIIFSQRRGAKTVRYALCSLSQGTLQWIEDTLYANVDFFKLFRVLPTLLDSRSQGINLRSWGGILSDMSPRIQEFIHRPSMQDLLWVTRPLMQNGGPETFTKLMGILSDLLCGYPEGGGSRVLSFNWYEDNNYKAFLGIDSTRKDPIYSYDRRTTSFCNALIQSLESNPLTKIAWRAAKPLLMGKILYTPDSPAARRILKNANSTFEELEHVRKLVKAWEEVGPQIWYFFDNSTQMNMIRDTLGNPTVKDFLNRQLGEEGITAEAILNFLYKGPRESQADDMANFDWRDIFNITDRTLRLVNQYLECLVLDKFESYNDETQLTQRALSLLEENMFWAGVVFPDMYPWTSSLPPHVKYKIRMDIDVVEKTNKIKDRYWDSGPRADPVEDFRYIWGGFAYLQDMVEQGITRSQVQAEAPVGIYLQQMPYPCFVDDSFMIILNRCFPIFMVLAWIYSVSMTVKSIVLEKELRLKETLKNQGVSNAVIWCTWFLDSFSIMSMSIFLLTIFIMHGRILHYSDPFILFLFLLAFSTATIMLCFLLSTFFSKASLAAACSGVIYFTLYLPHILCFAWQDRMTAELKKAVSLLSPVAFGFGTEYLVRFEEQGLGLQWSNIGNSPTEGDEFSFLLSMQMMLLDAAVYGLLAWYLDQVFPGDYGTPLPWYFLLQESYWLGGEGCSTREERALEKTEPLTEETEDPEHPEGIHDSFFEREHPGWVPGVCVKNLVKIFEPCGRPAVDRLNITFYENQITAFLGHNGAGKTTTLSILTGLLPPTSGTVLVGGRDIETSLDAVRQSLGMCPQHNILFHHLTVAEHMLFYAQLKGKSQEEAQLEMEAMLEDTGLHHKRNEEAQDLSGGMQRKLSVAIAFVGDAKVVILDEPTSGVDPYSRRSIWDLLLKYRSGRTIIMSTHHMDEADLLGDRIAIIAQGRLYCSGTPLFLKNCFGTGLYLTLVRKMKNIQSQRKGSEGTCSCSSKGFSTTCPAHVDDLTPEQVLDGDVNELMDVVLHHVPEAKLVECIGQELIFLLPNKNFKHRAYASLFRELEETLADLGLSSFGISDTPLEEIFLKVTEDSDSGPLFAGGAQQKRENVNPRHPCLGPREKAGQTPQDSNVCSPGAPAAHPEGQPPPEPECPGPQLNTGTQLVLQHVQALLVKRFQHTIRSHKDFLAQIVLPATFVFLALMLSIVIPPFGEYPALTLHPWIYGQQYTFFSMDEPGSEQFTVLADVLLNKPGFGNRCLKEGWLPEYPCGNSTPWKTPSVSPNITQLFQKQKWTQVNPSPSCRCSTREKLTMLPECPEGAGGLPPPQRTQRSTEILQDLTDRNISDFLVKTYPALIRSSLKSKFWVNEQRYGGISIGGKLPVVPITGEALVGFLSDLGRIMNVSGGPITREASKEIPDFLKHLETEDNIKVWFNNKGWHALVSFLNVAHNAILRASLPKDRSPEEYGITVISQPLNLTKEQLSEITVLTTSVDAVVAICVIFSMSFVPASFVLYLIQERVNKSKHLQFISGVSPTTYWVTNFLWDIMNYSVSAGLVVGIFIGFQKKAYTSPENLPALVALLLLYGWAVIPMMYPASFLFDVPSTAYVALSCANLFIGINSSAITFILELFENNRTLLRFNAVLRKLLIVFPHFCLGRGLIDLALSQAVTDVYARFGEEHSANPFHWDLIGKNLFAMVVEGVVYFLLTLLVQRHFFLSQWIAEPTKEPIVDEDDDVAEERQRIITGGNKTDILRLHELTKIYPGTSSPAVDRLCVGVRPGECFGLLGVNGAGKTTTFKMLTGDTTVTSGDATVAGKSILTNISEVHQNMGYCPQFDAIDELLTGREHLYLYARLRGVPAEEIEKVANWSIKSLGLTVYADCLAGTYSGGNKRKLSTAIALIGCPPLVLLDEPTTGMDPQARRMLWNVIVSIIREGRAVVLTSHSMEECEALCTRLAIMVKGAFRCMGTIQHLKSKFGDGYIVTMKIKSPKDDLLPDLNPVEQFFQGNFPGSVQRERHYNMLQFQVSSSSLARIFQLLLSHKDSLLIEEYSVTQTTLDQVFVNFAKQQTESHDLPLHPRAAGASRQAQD
UniProt O15254: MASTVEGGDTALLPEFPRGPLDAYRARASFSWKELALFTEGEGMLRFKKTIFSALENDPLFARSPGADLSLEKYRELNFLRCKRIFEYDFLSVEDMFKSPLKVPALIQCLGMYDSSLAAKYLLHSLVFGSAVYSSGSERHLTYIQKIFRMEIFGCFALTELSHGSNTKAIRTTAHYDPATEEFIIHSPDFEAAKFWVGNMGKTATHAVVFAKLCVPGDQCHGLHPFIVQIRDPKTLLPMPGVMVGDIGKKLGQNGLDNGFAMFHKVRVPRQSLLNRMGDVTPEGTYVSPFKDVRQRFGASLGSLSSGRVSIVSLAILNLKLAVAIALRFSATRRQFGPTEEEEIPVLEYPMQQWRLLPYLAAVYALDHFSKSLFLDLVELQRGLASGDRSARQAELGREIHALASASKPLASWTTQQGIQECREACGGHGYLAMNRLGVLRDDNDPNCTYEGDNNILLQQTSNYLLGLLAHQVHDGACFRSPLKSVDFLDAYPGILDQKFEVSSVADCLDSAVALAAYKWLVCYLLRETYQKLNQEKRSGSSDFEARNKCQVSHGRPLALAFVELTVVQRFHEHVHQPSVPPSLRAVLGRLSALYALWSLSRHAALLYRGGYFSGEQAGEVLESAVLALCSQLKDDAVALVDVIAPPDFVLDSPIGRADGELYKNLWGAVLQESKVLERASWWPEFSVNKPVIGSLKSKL
UniProt Q9NX38: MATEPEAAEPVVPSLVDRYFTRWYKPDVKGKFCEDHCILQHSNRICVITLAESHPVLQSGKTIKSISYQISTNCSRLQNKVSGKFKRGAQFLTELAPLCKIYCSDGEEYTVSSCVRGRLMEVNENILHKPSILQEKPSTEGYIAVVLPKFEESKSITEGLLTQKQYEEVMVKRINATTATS
UniProt Q2M2I8: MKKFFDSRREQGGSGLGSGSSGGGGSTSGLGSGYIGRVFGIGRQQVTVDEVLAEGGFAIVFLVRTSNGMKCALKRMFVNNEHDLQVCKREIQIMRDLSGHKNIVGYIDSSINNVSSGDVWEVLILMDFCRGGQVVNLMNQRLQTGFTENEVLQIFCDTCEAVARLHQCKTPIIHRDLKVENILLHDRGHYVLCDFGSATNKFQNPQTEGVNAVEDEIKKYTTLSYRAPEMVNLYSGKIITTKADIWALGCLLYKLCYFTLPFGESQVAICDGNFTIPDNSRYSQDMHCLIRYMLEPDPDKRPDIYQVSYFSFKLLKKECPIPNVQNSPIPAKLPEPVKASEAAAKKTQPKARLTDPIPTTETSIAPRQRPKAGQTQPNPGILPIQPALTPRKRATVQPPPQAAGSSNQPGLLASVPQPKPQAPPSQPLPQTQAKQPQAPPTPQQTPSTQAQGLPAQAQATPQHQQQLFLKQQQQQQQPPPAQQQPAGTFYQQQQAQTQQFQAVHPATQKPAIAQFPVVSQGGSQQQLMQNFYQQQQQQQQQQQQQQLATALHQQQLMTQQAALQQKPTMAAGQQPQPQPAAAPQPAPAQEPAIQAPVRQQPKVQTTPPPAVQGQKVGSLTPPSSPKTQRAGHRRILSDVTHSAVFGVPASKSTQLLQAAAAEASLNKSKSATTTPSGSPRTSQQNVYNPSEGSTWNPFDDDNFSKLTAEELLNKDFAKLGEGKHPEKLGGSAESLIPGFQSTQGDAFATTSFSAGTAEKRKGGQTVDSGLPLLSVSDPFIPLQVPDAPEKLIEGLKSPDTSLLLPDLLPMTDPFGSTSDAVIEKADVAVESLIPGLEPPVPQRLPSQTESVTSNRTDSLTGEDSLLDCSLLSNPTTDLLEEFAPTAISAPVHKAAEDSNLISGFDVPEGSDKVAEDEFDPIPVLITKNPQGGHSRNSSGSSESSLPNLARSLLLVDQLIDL
UniProt Q9P1F3: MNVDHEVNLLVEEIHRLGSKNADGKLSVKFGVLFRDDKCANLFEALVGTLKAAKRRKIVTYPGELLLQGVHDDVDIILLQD
UniProt P33897: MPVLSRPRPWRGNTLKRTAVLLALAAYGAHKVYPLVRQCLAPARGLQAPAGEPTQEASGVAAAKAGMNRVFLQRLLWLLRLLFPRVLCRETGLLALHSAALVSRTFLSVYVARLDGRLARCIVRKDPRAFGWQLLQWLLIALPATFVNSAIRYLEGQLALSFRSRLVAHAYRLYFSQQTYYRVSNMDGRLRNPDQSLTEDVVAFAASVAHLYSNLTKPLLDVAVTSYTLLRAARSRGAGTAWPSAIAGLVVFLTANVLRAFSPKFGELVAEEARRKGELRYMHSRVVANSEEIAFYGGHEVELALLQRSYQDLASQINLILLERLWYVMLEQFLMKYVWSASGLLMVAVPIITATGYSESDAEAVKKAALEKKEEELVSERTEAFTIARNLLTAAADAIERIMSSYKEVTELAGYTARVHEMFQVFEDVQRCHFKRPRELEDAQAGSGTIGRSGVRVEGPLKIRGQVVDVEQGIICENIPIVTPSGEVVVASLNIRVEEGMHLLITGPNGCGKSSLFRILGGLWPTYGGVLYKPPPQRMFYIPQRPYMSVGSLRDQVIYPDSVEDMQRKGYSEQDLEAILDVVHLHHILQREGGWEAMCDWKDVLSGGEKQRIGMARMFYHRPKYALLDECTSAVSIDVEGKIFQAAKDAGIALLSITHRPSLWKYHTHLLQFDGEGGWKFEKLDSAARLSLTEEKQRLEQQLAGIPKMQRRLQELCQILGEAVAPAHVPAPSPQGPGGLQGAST
UniProt Q9UNA0: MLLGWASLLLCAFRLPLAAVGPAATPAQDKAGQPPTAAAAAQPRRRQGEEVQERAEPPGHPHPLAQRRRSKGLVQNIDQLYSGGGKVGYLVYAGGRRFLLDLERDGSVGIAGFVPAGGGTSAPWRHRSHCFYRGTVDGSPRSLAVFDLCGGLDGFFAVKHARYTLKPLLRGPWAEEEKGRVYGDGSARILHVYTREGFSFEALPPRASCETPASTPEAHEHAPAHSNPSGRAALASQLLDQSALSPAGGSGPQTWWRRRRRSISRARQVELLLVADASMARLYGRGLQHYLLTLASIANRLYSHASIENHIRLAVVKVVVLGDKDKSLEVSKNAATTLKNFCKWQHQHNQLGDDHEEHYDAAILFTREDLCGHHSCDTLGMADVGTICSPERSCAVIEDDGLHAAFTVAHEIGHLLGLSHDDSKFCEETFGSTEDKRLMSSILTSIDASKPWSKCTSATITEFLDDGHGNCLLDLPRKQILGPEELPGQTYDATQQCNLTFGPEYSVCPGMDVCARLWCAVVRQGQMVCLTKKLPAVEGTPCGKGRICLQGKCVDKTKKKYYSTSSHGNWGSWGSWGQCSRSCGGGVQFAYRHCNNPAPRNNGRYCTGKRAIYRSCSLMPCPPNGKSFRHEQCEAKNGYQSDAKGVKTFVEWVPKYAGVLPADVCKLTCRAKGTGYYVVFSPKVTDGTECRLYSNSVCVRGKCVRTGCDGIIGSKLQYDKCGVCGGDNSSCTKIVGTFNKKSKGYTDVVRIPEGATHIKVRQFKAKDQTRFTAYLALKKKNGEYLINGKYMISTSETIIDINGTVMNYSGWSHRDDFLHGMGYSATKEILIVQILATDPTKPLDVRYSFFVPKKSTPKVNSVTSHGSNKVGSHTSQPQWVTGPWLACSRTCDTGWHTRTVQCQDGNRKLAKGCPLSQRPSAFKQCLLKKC
UniProt P42025, whole entry, looked up: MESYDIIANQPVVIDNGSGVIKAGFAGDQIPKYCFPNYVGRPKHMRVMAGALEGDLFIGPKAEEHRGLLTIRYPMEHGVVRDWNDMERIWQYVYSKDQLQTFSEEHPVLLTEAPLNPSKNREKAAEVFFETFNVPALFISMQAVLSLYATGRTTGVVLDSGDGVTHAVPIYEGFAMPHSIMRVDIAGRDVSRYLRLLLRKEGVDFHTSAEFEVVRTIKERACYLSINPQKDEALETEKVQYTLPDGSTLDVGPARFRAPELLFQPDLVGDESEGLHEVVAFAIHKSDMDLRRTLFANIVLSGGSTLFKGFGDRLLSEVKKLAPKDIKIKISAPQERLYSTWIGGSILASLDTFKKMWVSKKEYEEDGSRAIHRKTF

Assays:
Experiment in all cases: log2 fold change, soluble protein after heating vs DMSO (PISA); higher = thermal stabilisation; K562 cells, 10 uM, 30 min; active = over 0.2 and 3.5 SD of the protein, either way, in both replicates (recomputed)
[1] = compound: CS(=O)(=O)c1ccc(-c2cnc(N)c(C(=O)Nc3ccccc3)n2)cc1
Method in brief: (§1)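 Soluble protein was quantified by TMTpro 16plex LC-MS/MS after channel sums were equalised. It was obtained as the supernatant after 21,000xg for 90 min from pooled aliquots of K562 cells (2×10^6 cells/mL, 10 μM compound, 30 min) heated for 3 min across 48°C-58°C and extracted in PBS with 0.5% NP-40 at 4°C. Thermal stability values are relative to control samples and come from duplicates. They are given as log2 fold changes.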

crizotinib = compound: C[C@@H](Oc1cc(-c2cnn(C3CCNCC3)c2)cnc1N)c1c(Cl)ccc(F)c1Cl [crizotinib]
Method in brief: as §1

[2] = compound: C[C@@H]1COCCN1C2=NC(=NC(=C2)C3(CC3)S(=O)(=O)C)C4=C5C=CNC5=CC=C4
Method in brief: as §1

[3] = compound: C[C@H](C1=CC=C(C=C1)C(=O)NC2=C3C=CNC3=NC=C2)N
Method in brief: as §1

gandotinib = compound: Cc1cc(Nc2cc(CN3CCOCC3)c3nc(C)c(Cc4ccc(Cl)cc4F)n3n2)n[nH]1 [gandotinib]
Method in brief: as §1

[4] = compound: Cc1cc(SCc2sc(-c3ccc(C(F)(F)F)cc3)nc2C)ccc1OCC(=O)O
Method in brief: as §1

doramapimod = compound: Cc1ccc(-n2nc(C(C)(C)C)cc2NC(=O)Nc2ccc(OCCN3CCOCC3)c3ccccc23)cc1 [doramapimod]
Method in brief: as §1

ispinesib = compound: Cc1ccc(C(=O)N(CCCN)[C@@H](c2nc3cc(Cl)ccc3c(=O)n2Cc2ccccc2)C(C)C)cc1 [ispinesib]
Method in brief: as §1

bafetinib = compound: Cc1ccc(NC(=O)c2ccc(CN3CC[C@H](N(C)C)C3)c(C(F)(F)F)c2)cc1Nc1nccc(-c2cncnc2)n1 [bafetinib]
Method in brief: as §1

[5] = compound: Cc1cccc(CC(=O)N2CCc3c2ccc(-c2cn(C)c4ncnc(N)c24)c3F)n1
Method in brief: as §1

nilotinib = compound: Cc1cn(-c2cc(NC(=O)c3ccc(C)c(Nc4nccc(-c5cccnc5)n4)c3)cc(C(F)(F)F)c2)cn1 [nilotinib]
Method in brief: as §1

[6] = compound: Cc1nc(Nc2n[nH]c3c2CN(C(=O)N[C@H](CN(C)C)c2ccccc2)C3(C)C)c2sccc2n1
Method in brief: as §1

dasatinib = compound: Cc1nc(Nc2ncc(C(=O)Nc3c(C)cccc3Cl)s2)cc(N2CCN(CCO)CC2)n1 [dasatinib]
Method in brief: as §1

[7] = compound: Cc1ncc(-c2ccnc(Nc3ccc(S(C)(=O)=O)cc3)n2)n1C(C)C
Method in brief: as §1

[8] = compound: Cn1cc(-c2ccc3c(c2)CCN3C(=O)Cc2cccc(C(F)(F)F)c2)c2c(N)ncnc21
Method in brief: as §1

[9] = compound: Cn1cc(-c2ccc3nnc(C(F)(F)c4ccc5ncccc5c4)n3n2)cn1
Method in brief: as §1

tipifarnib = compound: Cn1cncc1[C@@](N)(c1ccc(Cl)cc1)c1ccc2c(c1)c(-c1cccc(Cl)c1)cc(=O)n2C [tipifarnib]
Method in brief: as §1

mubritinib = compound: FC(F)(F)c1ccc(/C=C/c2nc(COc3ccc(CCCCn4ccnn4)cc3)co2)cc1 [mubritinib]
Method in brief: as §1

Target | log2 fold change [1] | log2 fold change (crizotinib) | log2 fold change [2] | log2 fold change [3] | log2 fold change (gandotinib) | log2 fold change [4] | log2 fold change (doramapimod) | log2 fold change (ispinesib) | log2 fold change (bafetinib) | log2 fold change [5] | log2 fold change (nilotinib) | log2 fold change [6] | log2 fold change (dasatinib) | log2 fold change [7] | log2 fold change [8] | log2 fold change [9] | log2 fold change (tipifarnib) | log2 fold change (mubritinib)
ABCC5 (UniProt O15440) | inactive: 0.045 | inactive: -0.011 | inactive: 0.031 | inactive: 0.088 | inactive: -0.05 | inactive: -0.011 | inactive: -0.023 | inactive: -0.071 | inactive: -0.027 | inactive: 0.068 | inactive: -0.21 | active: -0.219 | inactive: -0.035 | inactive: -0.015 | inactive: 0.017 | inactive: 0.053 | inactive: -0.009 | inactive: 0.124
ABCA4 (UniProt P78363) | inactive: 0.286 | inactive: 0.035 | inactive: 0.036 | inactive: 0.019 | inactive: 0.452 |  | inactive: 0.004 | inactive: -0.119 | inactive: -0.025 | inactive: -0.149 | inactive: 0.106 | inactive: 0.095 |  | inactive: 0.045 | inactive: 0.016 | inactive: -0.071 |  | inactive: 0.154
ACOX3 (UniProt O15254) | inactive: -0.006 | inactive: -0.091 | inactive: 0.016 | inactive: 0.065 |  |  | inactive: 0.14 |  | inactive: 0.053 |  | inactive: 0.159 | inactive: -0.028 |  | inactive: 0.107 | inactive: -0.009 |  | inactive: 0.272 | inactive: -0.241
ABITRAM (UniProt Q9NX38) | inactive: 0.055 | inactive: 0.012 | inactive: 0.1 | inactive: -0.011 | inactive: 0.169 | inactive: 0.079 | inactive: 0.006 | inactive: 0.108 | inactive: 0.016 | inactive: 0.116 | inactive: -0.327 | inactive: -0.146 | inactive: -0.316 | active: -0.442 | inactive: -0.004 | inactive: 0.026 | inactive: -0.031 | inactive: 0.046
AAK1 (UniProt Q2M2I8) | inactive: 0.043 | inactive: 0.169 | inactive: 0.028 | active: 0.412 | inactive: 0.091 | inactive: 0.096 | inactive: -0.095 | inactive: 0.091 | inactive: -0.016 | inactive: -0.048 | inactive: 0.027 | inactive: 0.158 | inactive: -0.203 | inactive: 0.219 | inactive: -0.011 | inactive: -0.086 | inactive: -0.057 | inactive: -0.066
ABRACL (UniProt Q9P1F3) | inactive: 0.032 | inactive: 0.186 |  |  |  |  | inactive: -0.055 | inactive: 0.04 | inactive: -0.207 |  | inactive: 0.191 | inactive: -0.076 |  | inactive: -0.182 |  | inactive: -0.02 |  | inactive: 0.057
ABCD1 (UniProt P33897) | inactive: -0.082 | inactive: -0.173 | inactive: 0.082 | inactive: 0.028 |  |  | inactive: 0.025 |  |  |  |  |  |  |  | inactive: 0.073 |  |  | 
ADAMTS5 (UniProt Q9UNA0) | inactive: 0.077 | inactive: 0.084 |  | inactive: -0.08 | inactive: 0.178 | inactive: -0.136 | inactive: 0.052 | inactive: -0.035 | inactive: -0.103 | inactive: -0.066 | inactive: 0.022 | inactive: 0.052 | inactive: 0.033 | inactive: -0.079 | inactive: 0.088 | inactive: 0.063 |  | inactive: 0.154
ACTR1B (UniProt P42025) | inactive: 0 | inactive: -0.009 | inactive: 0.156 | inactive: 0.072 | inactive: -0.167 | inactive: -0.022 | inactive: 0 | inactive: 0.124 | inactive: -0.062 | inactive: -0.221 | inactive: 0.034 | inactive: -0.011 | inactive: 0.034 | inactive: 0.083 | inactive: -0.011 | inactive: 0.003 | inactive: 0.077 | inactive: -0.001
ACADVL isoform 3 (UniProt P49748) | inactive: 0.042 | inactive: 0.021 | inactive: 0.078 | inactive: -0.058 | inactive: -0.01 | inactive: -0.005 | inactive: -0.065 | inactive: -0.01 | inactive: -0.093 | inactive: 0 | inactive: 0.032 | inactive: 0.02 | inactive: -0.016 | inactive: -0.007 | inactive: 0.022 | inactive: 0.026 | inactive: -0.01 | inactive: 0.071
